In PubChem BioAssay AID328 (DTP/NCI, 2004):
The list shows only some results of the screen, not a fair sample: it is rich in T/C values a quarter to a half above the control, in often repeated tests (any T/C) and in doses without a T/C. Other doses and runs of a compound stand elsewhere. T/C: endpoint of the treated group in % of that of the vehicle group. Some doses have a count of surviving animals in place of a T/C: the source files T/C as zero there, which appears to mark a toxic dose or a test without result, not a measured value. Some survivor counts are full or nearly so, which does not show that the dose was tolerated: the source hardly ever lists a survival T/C far under the control, and the zero likely stands for such cases as well. Survivors were counted at the toxicity check, usually on the fifth day, unless a day is given; later deaths do not show. Schedule codes are those of the source, taken here to give the interval after Q, in days (D) or hours (H), and the number of doses after X. Some entries were tested several times; their values stand side by side, smallest first. For survival time, this PubChem deposit counts one and a half times the control or more as active, and values a quarter to a half above the control carry no call in these data; other NCI protocols may use other cut-offs.

Test system: BDF1 mice, P388 leukemia ip, median survival T/C
Assay: NCI In Vivo Anticancer Drug Screen. Data for tumor model P388 Leukemia (intraperitoneal) in B6D2F1 (BDF1) mice
Settings: T/C endpoint: median survival time, higher T/C = longer survival
Outline: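 Transplantable tumour in mice; compound vs vehicle dosing; survival scored; ratio of treated to control reported.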

[1] = dose: 25.0 mg/kg/injection, schedule: Q04DX003 (ip), vehicle: saline
[2] = dose: 200.0 mg/kg/injection, schedule: Q01DX009 (ip), vehicle: Klucel (hydroxypropylcellulose) (HPC)
[3] = dose: 100.0 mg/kg/injection, schedule: Q01DX009 (ip), vehicle: saline with Tween-80
[4] = dose: 25.0 mg/kg/injection, schedule: Q01DX009 (ip), vehicle: saline with Tween-80
[5] = dose: 50.0 mg/kg/injection, schedule: Q01DX009 (ip), vehicle: saline with Tween-80
[6] = dose: 6.25 mg/kg/injection, schedule: Q01DX009 (ip), vehicle: saline

With `C=CC(C)(C)C12CC3C(=O)N/C(=C\c4cnc[nH]4)C(=O)N3C1Nc1ccccc12` (stereo not drawn) the T/C (dose: 25.0 mg/kg/injection, schedule: Q01DX009 (ip), vehicle: Klucel (hydroxypropylcellulose) (HPC)) was 140 % of control.
With `CC1(C)N=C(N)N=C(N)N1c1cccc(-c2ccccc2)c1` the survivor count (dose: 18.75 mg/kg/injection, schedule: Q01DX009 (ip), vehicle: Klucel (hydroxypropylcellulose) (HPC)) was 1 of 6, the survivor count (dose: 37.5 mg/kg/injection, schedule: Q01DX009 (ip), vehicle: Klucel (hydroxypropylcellulose) (HPC)) was 0 of 6 and the survivor count (dose: 75.0 mg/kg/injection, schedule: Q01DX009 (ip), vehicle: Klucel (hydroxypropylcellulose) (HPC)) was 0 of 6. For the same compound, the survivor count (dose: 150.0 mg/kg/injection, schedule: Q01DX009 (ip), vehicle: Klucel (hydroxypropylcellulose) (HPC)) was 0 of 6.
`ClC[P+](c1ccccc1)(c1ccccc1)c1ccccc1` was tested, and the survivor count (dose: 12.0 mg/kg/injection, schedule: Q01DX009 (ip), vehicle: saline) was 4 of 6, the survivor count [1] was 1 of 6 and the survivor count (dose: 50.0 mg/kg/injection, schedule: Q04DX003 (ip), vehicle: saline) was 0 of 6.
In the case of `Clc1cccc(Cl)c1Br`, the survivor count (dose: 200.0 mg/kg/injection, schedule: Q04DX003 (ip), vehicle: Klucel (hydroxypropylcellulose) (HPC)) is reported as 6 of 6.
In the case of `CNC(=O)NC1C(O)COC(OC)C1O` (stereo not drawn), the T/C (dose: 75.0 mg/kg/injection, schedule: Q01DX001 (ip), vehicle: saline) is reported as 145 % of control.
`N#C/C(=C1C=C(Br)/C(=N\O)C=C\1Cl)c1ccc(Cl)cc1` was tested, and the T/C (dose: 400.0 mg/kg/injection, schedule: Q01DX009 (ip), vehicle: Klucel (hydroxypropylcellulose) (HPC)) was 133 % of control.
In the case of `O=S(=O)(NS(=O)(=O)c1ccc(Cl)cc1)c1ccc(Cl)cc1`, the survivor count (dose: 400.0 mg/kg/injection, schedule: Q04DX003 (ip), vehicle: Klucel (hydroxypropylcellulose) (HPC)) is reported as 0 of 6.
In the case of `COC(=O)C(N)CN` (stereo not drawn), the survivor count (dose: 87.5 mg/kg/injection, schedule: Q01DX009 (ip), vehicle: saline with Tween-80) is reported as 7 of 7 and the survivor count (dose: 350.0 mg/kg/injection, schedule: Q01DX009 (ip), vehicle: saline with Tween-80) is reported as 5 of 7.
With `CN(C)c1ccc(/C=C/c2ccnc3ccccc23)cc1` the survivor count (dose: 70.0 mg/kg/injection, schedule: Q01DX010 (ip), vehicle: saline) was 6 of 6 and the survivor count (dose: 140.0 mg/kg/injection, schedule: Q01DX010 (ip), vehicle: saline) was 6 of 6.
`O=S(=O)(O)c1ccc(Nc2ccccc2)cc1` was tested, and the survivor count [2] was 5 of 6.
`COc1cc2cc(c1Cl)NC(=O)/C=C/[C@]1(C)O[C@H]1[C@H](C)[C@@H]1C[C@@](O)(NC(=O)O1)[C@H](OC)C=C/C=C(\C)C2` was tested, and the survivor count (dose: 1.6 micrograms/kg/injection, schedule: Q01DX009 (ip), vehicle: saline + alcohol) was 6 of 6, the survivor count (dose: 3.1 micrograms/kg/injection, schedule: Q01DX009 (ip), vehicle: saline + alcohol) was 6 of 6 and the survivor count (dose: 6.2 micrograms/kg/injection, schedule: Q01DX009 (ip), vehicle: saline + alcohol) was 6 of 6.
In the case of `COC(=O)c1ccc(CBr)cc1`, the survivor count [3] is reported as 5 of 6.
With `O=c1[nH]cc(F)c(=O)n1C1OC(CO)C(O)C1O` (stereo not drawn) the survivor count (dose: 6.0 mg/kg/injection, schedule: Q01DX009 (ip), vehicle: saline) was 6 of 6.
`CC(=O)N1c2ccccc2Sc2ccc3ccc(C(=O)CCl)cc3c21` was tested, and the T/C (dose: 12.5 mg/kg/injection, schedule: Q01DX009 (ip), vehicle: saline with Tween-80) was 137 % of control, the T/C [4] was 142 % of control and the T/C [5] was 144 % of control.
`O=C(NNC1CCN(Cc2ccccc2)CC1)c1ccccc1` was tested, and the T/C (dose: 2.5 mg/kg/injection, schedule: Q04DX003 (ip), vehicle: saline with Tween-80) was 129 % of control.
`CC(C)CCC[C@@H](C)[C@H]1CC[C@H]2[C@@H]3CC[C@H]4C[C@H]5N[C@H]5C[C@]4(C)[C@H]3CC[C@]12C` was tested, and the survivor count (dose: 25.0 mg/kg/injection, schedule: Q01DX001 (ip), vehicle: saline sonified) was 6 of 6.
`CN(C)CC(C(=O)c1ccc(Br)cc1)C(Br)c1ccccc1` (stereo not drawn) was tested, and the survivor count (dose: 35.0 mg/kg/injection, schedule: Q01DX009 (ip), vehicle: saline) was 1 of 6, the survivor count (dose: 95.0 mg/kg/injection, schedule: Q04DX003 (ip), vehicle: saline) was 0 of 6 and the survivor count (dose: 145.0 mg/kg/injection, schedule: Q04DX003 (ip), vehicle: saline) was 0 of 6. For the same compound, the survivor count (dose: 215.0 mg/kg/injection, schedule: Q04DX003 (ip), vehicle: saline) was 0 of 6.
For `NCc1cn(C2OC(CO)C(O)C2O)c2ncnc(N)c12` (stereo not drawn), the survivor count [6] was 5 of 6 and 6 of 6 and the survivor count (dose: 12.5 mg/kg/injection, schedule: Q04DX003 (ip), vehicle: saline) was 6 of 6.
In the case of `CN=S(=O)(OCCCCCCCCCOS(=O)(=NC)c1ccc(C)cc1)c1ccc(C)cc1` (stereo not drawn), the T/C [4] is reported as 126 % of control, the T/C (dose: 50.0 mg/kg/injection, schedule: Q01DX009 (ip), vehicle: saline + alcohol) is reported as 129 % of control and the survivor count (dose: 100.0 mg/kg/injection, schedule: Q01DX009 (ip), vehicle: saline + alcohol) is reported as 6 of 6. The survivor count [3] was 6 of 6 and the survivor count (dose: 200.0 mg/kg/injection, schedule: Q01DX009 (ip), vehicle: saline + alcohol) was 0 of 6.
In the case of `CC(=O)O[C@@H]1[C@H]2O[C@H]2[C@H]2O[C@@]2(COC(=O)c2ccccc2)[C@H]1OC(C)=O`, the survivor count (dose: 50.0 mg/kg/injection, schedule: Q01DX010 (ip), vehicle: steroid suspending solution) is reported as 6 of 6.
In the case of `CC1CCCC(NC(=O)N(CCCl)N=O)C1` (stereo not drawn), the survivor count (dose: 200.0 mg/kg/injection, schedule: Q04DX003 (ip), vehicle: saline with Tween-80) is reported as 5 of 6 and the survivor count (dose: 400.0 mg/kg/injection, schedule: Q04DX003 (ip), vehicle: saline with Tween-80) is reported as 2 of 6.
For `CC(=O)N(O)c1ccc(Cl)cc1`, the survivor count (dose: 200.0 mg/kg/injection, schedule: Q04DX002 (ip), vehicle: saline with Tween-80) was 4 of 5 and 6 of 6 and the survivor count (dose: 400.0 mg/kg/injection, schedule: Q04DX002 (ip), vehicle: saline with Tween-80) was 0 of 6.
In the case of `CN(N=O)C(=O)Nc1ccc(C(=O)O)cc1`, the survivor count (dose: 225.0 mg/kg/injection, schedule: Q04DX003 (ip), vehicle: saline with Tween-80) is reported as 4 of 6.
In the case of `CC(=O)CC(c1ccc2c(c1)OCO2)c1c(O)c2ccccc2oc1=O` (stereo not drawn), the survivor count (dose: 3.12 mg/kg/injection, schedule: Q01DX009 (ip), vehicle: saline) is reported as 4 of 6, the survivor count [6] is reported as 1 of 6 and the survivor count (dose: 12.5 mg/kg/injection, schedule: Q01DX009 (ip), vehicle: saline) is reported as 4 of 6. The survivor count (dose: 25.0 mg/kg/injection, schedule: Q01DX009 (ip), vehicle: saline) was 3 of 6 and the survivor count [1] was 6 of 6.
`COc1cc(C(C)(C)C)cc(OC)c1C(O)(c1c(OC)cc(C(C)(C)C)cc1OC)c1c(OC)cc(C(C)(C)C)cc1OC` was tested, and the T/C [5] was 140 % of control, the T/C [3] was 147 % of control and the survivor count (dose: 200.0 mg/kg/injection, schedule: Q01DX009 (ip), vehicle: saline with Tween-80) was 5 of 6.
In the case of `C#CC[N+]1=CN(c2ccc(C)cc2)Cc2cc(C)ccc21`, the T/C (dose: 150.0 mg/kg/injection, schedule: Q04DX003 (ip), vehicle: Klucel (hydroxypropylcellulose) (HPC)) is reported as 141 % of control, the survivor count [2] is reported as 3 of 6 and the survivor count (dose: 225.0 mg/kg/injection, schedule: Q04DX003 (ip), vehicle: Klucel (hydroxypropylcellulose) (HPC)) is reported as 4 of 6 and 5 of 6. The survivor count (dose: 335.0 mg/kg/injection, schedule: Q04DX003 (ip), vehicle: Klucel (hydroxypropylcellulose) (HPC)) was 4 of 6.
`COC1CC(C)C(OC)C2=CC(=O)C=C(NC(=O)/C(C)=C/C=C\C(C)C(OC(N)=O)/C(C)=C\C(C)C1OC)C2=O` (stereo not drawn) was tested, and the T/C (dose: 2.5 mg/kg/injection, schedule: Q01DX009 (ip), vehicle: saline + alcohol) was 140 % of control and the survivor count (dose: 20.0 mg/kg/injection, schedule: Q01DX009 (ip), vehicle: saline + alcohol) was 4 of 6.
